Measurements reported in PubChem BioAssay AID1259264 (Sanger Institute, 2017)
This is a random part of 794 deposited reagents. Over the whole deposit, 15 (1.9%) are marked active. 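Calls rest on knock-down alone at z-score below -3; synergy scores with the three drugs do not decide them.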 Not all columns of the deposit are shown. Not given: the amount of reagent, the time to read-out.

Screen: 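Kinases whose loss cuts CL40 colorectal cancer cell survival, alone or with drugs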 (primary screen)
System: CL40 human colorectal cancer cells
Reagents: siRNA pool against human genes
Conditions: DMSO, or an anchor drug: BYL719 at 1 µM, cetuximab at 5 µg/ml, or trametinib at 10 nM
Measurement: 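Replicate-mean viability versus a non-targeting pool, robust z-score from control wells, and mean synergy with BYL719 1 µM, cetuximab 5 µg/ml or trametinib 10 nM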
Scale: robust z-score, siRNA alone: higher = more viable cells
Call rule: 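Essential call: siRNA with no drug reaches a robust z under -3 (low cell count); drug synergy scores do not affect it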
Calls: active = essential (lowers viability alone); inactive = not essential

STRADB (STE20 related adaptor beta) gave robust z-score, siRNA alone 0.539; inactive.
After knock-down of GATA3 (GATA binding protein 3), the screen gave robust z-score, siRNA alone 0.539; inactive.
GRK3 (G protein-coupled receptor kinase 3) scored robust z-score, siRNA alone 0.539; inactive.
With knock-down of KDR (kinase insert domain receptor), the record shows robust z-score, siRNA alone 0.539; inactive.
After knock-down of OBSCN, the record shows robust z-score, siRNA alone 0.539; inactive.
After knock-down of CAMK1G (calcium/calmodulin dependent protein kinase IG), the record shows robust z-score, siRNA alone 0.178; inactive.
After knock-down of GNAS (GNAS complex locus), the screen gave robust z-score, siRNA alone 0.539; inactive.
Depletion of PRKAB2 (protein kinase AMP-activated non-catalytic subunit beta 2) gave: robust z-score, siRNA alone 0.186; inactive.
Against PIM1 (Pim-1 proto-oncogene, serine/threonine kinase), the values are robust z-score, siRNA alone 0.0953; inactive.
PRKACG (protein kinase cAMP-activated catalytic subunit gamma) showed robust z-score, siRNA alone 0.539; inactive.
ULK3 (unc-51 like kinase 3) gave robust z-score, siRNA alone -0.111; inactive.
For CKMT2 (creatine kinase, mitochondrial 2), the values are robust z-score, siRNA alone -0.211; inactive.
Against STK32C (serine/threonine kinase 32C), the values are robust z-score, siRNA alone 0.539; inactive.
With knock-down of PANK3 (pantothenate kinase 3), the screen gave robust z-score, siRNA alone 0.539; inactive.
Silencing of MAPK3 (mitogen-activated protein kinase 3) came out at: robust z-score, siRNA alone -0.675; inactive.
Against CDC73 (cell division cycle 73), the entry reads robust z-score, siRNA alone -0.745; inactive.
NRBP2 (nuclear receptor binding protein 2) scored robust z-score, siRNA alone -0.772; inactive.
Silencing of BRWD1 (bromodomain and WD repeat domain containing 1) came out at: robust z-score, siRNA alone 0.539; inactive.
Against CDK17 (cyclin dependent kinase 17) the deposit lists robust z-score, siRNA alone -1.85; inactive.
With knock-down of EPHA1 (EPH receptor A1), the screen gave robust z-score, siRNA alone -1.56; inactive.
EIF2AK3 (eukaryotic translation initiation factor 2 alpha kinase 3) showed robust z-score, siRNA alone 0.539; inactive.
After knock-down of NADK (NAD kinase), the record shows robust z-score, siRNA alone 0.539; inactive.
With knock-down of MAPK1 (mitogen-activated protein kinase 1) the results were robust z-score, siRNA alone 0.301; inactive.
Silencing of EPHB1 (EPH receptor B1) gave: robust z-score, siRNA alone -0.165; inactive.
Against PIK3R5 (phosphoinositide-3-kinase regulatory subunit 5), the values are robust z-score, siRNA alone 0.327; inactive.
BUB1B (BUB1 mitotic checkpoint serine/threonine kinase B) scored robust z-score, siRNA alone -2.45; inactive.
NUAK2 (NUAK family kinase 2) gave robust z-score, siRNA alone 0.539; inactive.
For DIS3 (DIS3 exosome endoribonuclease and 3'-5' exoribonuclease), the entry reads robust z-score, siRNA alone -0.615; inactive.

2 of these entries in another layout.
| gene symbol | robust z-score, siRNA alone | Outcome |
| --- | --- | --- |
| GNAS (GNAS complex locus) | 0.539 | inactive |
| PRKAB2 (protein kinase AMP-activated non-catalytic subunit beta 2) | 0.186 | inactive |
